In EP0589039A1, “[…] DERIVATIVE AND PHARMACEUTICAL PREPARATION CONTAINING THE SAME” (Asahi Kasei Kogyo Kabushiki Kaisha, priority 1991, dated 1992):
Read-outs that look alike come from different tables or passages of the source.

How the values were obtained:
[1] = test system: human breast cancer cell line MCF-7; test: Growth inhibition of human breast cancer cell MCF-7 (Methylene Blue staining); format: cell-based; conditions: read-out: Growth inhibition of MCF-7 (human breast cancer cells) (IC₅₀)
Experimental: (Growth inhibition of human breast cancer cell MCF-7)
Effect of the compound of the present invention on breast cancer were examined using a human breast cancer cell line MCF-7. Predetermined dilutions of each compound of the present invention were added to a 96 well microtiter plate purchased from Falcon, and the cancer cells were inoculated into each well with a inoculum size of 10³ cells per well (10⁴ cells in the case of 100 nM estrogen (E)). The thus prepared plate was supplied with RPMI 1640 medium which has been supplemented with 5% of fetal bovine serum and further with a predetermined amount of estrogen, and incubated at 37°C for 6 days (3 days in the case of 100 nM estrogen) in the presence of 5% CO₂. Thereafter, viable cells were fixed with glutaraldehyde and stained with Methylene Blue to measure absorbance at 665 nm.

[2] = test system: human breast cancer cultured cell line ZR-75-1; test: Growth inhibition of human breast cancer cultured cell line ZR-75-1 (Methylene Blue staining); format: cell-based; conditions: 120 h, ZR-75-1, 10⁻⁹ mole of estrogen, 5 days, read-out: IC₅₀
Experimental: Effect of the triphenylalkene derivative of the present invention on breast cancer were examined using a human breast cancer cultured cell line ZR-75-1. Predetermined dilutions of each triphenylalkene derivative of the present invention were added to a 96 well microtiter plate purchased from Falcon, and the cancer cells were inoculated into each well with a inoculum size of 2 x 10³ cells per well. The thus prepared plate was supplied with RPMI 1640 medium which has been supplemented with 10% of fetal bovine serum and further with 10⁻⁹ mole of estrogen, and incubated at 37°C for 5 days in the presence of 5% CO₂. Thereafter, viable cells were fixed with glutaraldehyde, stained with Methylene Blue and then extracted with 0.33 N of hydrochloric acid to measure absorbance at 665 nm. A concentration which gives a value of 0.5 when an absorbance in a well containing no triphenylalkene derivative is taken as 1 was defined as IC₅₀, with the results shown in Table 3.

osteoporosis model rats = test: Inhibition of decrease in bone density in ovariectomized osteoporosis model rats; format: in vivo, Fisher rats; conditions: left femur, D = W/V, 400 µg/kg orally once a day for 4 months
Experimental: Effect of the compound of the present invention to inhibit decrease in the bone density was evaluated using osteoporosis model rats. Of 32 Fisher rats of 7 months old, 24 were subjected to ovariectomy and then divided into 3 groups of 8 rats each; a first group was used as pathological group (Group P), a second group was used as Tamoxifen-administered group (Group T) and a third group was used as compound 1-administered group (Group S). The remaining 8 rats were subjected to sham operation and used as a control group (Group C). […] After completion of the administration, the left side femur of each rat was excised to measure its volume (V) and dry weight (W) to calculate a bone density (D) based on a formula, D = W/V [formula] . […]

With `CC/C(=C(\c1ccccc1)c1ccc(OCCN(C)C)cc1)c1ccccc1` [Tamoxifen, (Z)-2-[4-(1,2-diphenyl-1-butenyl)phenoxy]-N,N-dimethylethylamine, reference compound] the IC50 ([1]; MCF7, 72 h, 100 nM added amount of E (estrogen), 3 days, 10⁴ cells per well) was 6.4 µM, the IC50 ([1]; MCF7, 144 h, 0.1 nM added amount of E (estrogen), 6 days) was 1.85 µM and the IC50 [2] was 4 µM. The Bone density (osteoporosis model rats) was 1.0214.
